Some results were stated once for a whole list of compounds, not compound by compound.
System: GFP strain P. berghei
Test: in vivo antimalarial ED50 in mice, single administration SC or PO

Compound	times more efficacious than sodium artesunate administered SC
COC(=O)c1cc(CC[C@H]2O[C@@H]3O[C@@]4(C)CC[C@H]5[C@H](C)CC[C@@H]([C@H]2C)[C@@]35OO4)c(CC[C@H]2O[C@@H]3O[C@@]4(C)CC[C@H]5[C@H](C)CC[C@@H]([C@H]2C)[C@@]35OO4)cc1C(=O)OC [dimer 5]	3-37 times
C[C@H]1[C@@H](CCc2cc(CO)c(CO)cc2CC[C@H]2O[C@@H]3O[C@@]4(C)CC[C@H]5[C@H](C)CC[C@@H]([C@H]2C)[C@@]35OO4)O[C@@H]2O[C@@]3(C)CC[C@H]4[C@H](C)CC[C@@H]1[C@@]24OO3 [dimer 7]	3-37 times

From US20090291923A1, “TRIOXANE DIMERS HAVING HIGH ANTICANCER AND LONG-LASTING ANTIMALARIAL ACTIVITIES” (priority 2005, published 2009)
